These are yes or no findings as the source states them, for the method shown. Binding seen in cells or lysates may run through a third protein. Here binding means that the protein was enriched with, or labelled near, the bait; the list need not be complete.
Target: T1, NLR family pyrin domain containing 1 (NLRP1), endogenous (human (endogenous in K562 and M-PBMCs)) (UniProt Q9C000)
T1 sequence: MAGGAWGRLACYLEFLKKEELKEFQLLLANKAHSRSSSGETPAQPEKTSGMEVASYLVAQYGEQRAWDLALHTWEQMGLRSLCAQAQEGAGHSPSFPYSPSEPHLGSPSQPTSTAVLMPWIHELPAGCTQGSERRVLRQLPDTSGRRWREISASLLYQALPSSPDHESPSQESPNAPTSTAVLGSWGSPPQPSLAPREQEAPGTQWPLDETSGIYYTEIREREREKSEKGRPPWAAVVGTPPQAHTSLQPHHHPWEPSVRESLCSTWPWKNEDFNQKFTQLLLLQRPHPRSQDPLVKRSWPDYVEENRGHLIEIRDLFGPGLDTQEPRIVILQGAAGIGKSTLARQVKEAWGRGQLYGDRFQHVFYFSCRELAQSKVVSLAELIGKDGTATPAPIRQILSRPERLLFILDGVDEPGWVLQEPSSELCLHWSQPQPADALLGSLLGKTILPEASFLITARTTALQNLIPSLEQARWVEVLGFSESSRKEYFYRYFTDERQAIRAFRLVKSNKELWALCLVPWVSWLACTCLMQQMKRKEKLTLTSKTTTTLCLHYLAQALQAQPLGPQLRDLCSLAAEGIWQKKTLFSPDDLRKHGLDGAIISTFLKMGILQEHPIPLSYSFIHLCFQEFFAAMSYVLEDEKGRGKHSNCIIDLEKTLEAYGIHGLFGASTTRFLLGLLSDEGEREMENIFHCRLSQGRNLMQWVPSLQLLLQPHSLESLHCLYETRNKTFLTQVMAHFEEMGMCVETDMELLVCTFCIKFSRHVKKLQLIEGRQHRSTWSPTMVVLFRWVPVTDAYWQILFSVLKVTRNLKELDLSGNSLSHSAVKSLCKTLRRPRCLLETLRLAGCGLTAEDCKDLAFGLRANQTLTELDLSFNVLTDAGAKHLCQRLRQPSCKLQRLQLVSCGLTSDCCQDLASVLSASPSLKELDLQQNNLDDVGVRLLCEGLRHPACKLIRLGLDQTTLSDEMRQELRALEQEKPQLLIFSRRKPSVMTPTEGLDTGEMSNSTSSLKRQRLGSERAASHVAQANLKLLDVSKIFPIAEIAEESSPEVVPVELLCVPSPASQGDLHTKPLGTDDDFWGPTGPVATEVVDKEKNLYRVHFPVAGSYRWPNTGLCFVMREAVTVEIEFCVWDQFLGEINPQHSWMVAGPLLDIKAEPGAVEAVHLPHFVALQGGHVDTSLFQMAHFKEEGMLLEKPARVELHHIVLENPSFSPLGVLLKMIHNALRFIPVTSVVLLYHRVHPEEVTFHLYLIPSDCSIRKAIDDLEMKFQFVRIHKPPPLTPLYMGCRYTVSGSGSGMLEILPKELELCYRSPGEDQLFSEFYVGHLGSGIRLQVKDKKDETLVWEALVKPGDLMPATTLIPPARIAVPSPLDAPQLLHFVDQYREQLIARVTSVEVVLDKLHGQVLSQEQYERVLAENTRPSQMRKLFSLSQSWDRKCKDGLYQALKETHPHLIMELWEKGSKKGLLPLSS
Assay: affinity purification with mass spectrometry; endogenous NLRP1 immunoprecipitated from K562 cells after erythroid differentiation; eluates on SDS-PAGE, in-gel trypsin digest, LC-MS/MS; three biological replicates

- binding: binds
B1: LRR Binding FLII Interacting Protein 1 (LRRFIP1), endogenous (protein, UniProt Q32MZ4 1-808)
chain: MTSPAAAQSREIDCLSPEAQKLAEARLAAKRAARAEAREIRMKELERQQKEEDSERYSRRSRRNTSASDEDERMSVGSRGSLRVEERPEKDFTEKGSRNMPGLSAATLASLGGTSSRRGSGDTSISIDTEASIREIKELNELKDQIQDVEGKYMQGLKEMKDSLAEVEEKYKKAMVSNAQLDNEKTNFMYQVDTLKDMLLELEEQLAESRRQYEEKNKEFEREKHAHSILQFQFAEVKEALKQREEMLEKHGIILNSEIATNGETSDTLNNVGYQGPTKMTKEELNALKSTGDGTLGRASEVEVKNEIVANVGKREILHNTEKEQHTEDTVKDCVDIEVFPAGENTEDQKSSEDTAPFLGTLAGATYEEQVQSQILESSSLPENTVQVESNEVMGAPDDRTRTPLEPSNCWSDLDGGNHTENVGEAAVTQVEEQAGTVASCPLGHSDDTVYHDDKCMVEVPQELETSTGHSLEKEFTNQEAAEPKEVPAHSTEVGRDHNEEEGEETGLRDEKPIKTEVPGSPAGTEGNCQEATGPSTVDTQNEPLDMKEPDEEKSDQQGEALDSSQKKTKNKKKKNKKKKSPVPVETLKDVKKELTYQNTDLSEIKEEEQVKSTDRKSAVEAQNEVTENPKQKIAAESSENVDCPENPKIKLDGKLDQEGDDVQTAAEEVLADGDTLDFEDDTVQSSGPRAGGEELDEGVAKDNAKIDGATQSSPAEPKSEDADRCTLPEHESPSQDISDACEAESTERCEMSEHPSQTVRKALDSNSLENDDLSAPGREPGHFNPESREDTRGGNEKGKSKEDCTMS

Reference: publication PMC10565642
